# From PubChem BioAssay (EPA / NIEHS)
# The chains behind the UniProt entries cited, without tags or fusion partners. Where a name states a change or a piece, a line headed by the entry shows the natural chain unless it says otherwise.
# UniProt Q96RI1: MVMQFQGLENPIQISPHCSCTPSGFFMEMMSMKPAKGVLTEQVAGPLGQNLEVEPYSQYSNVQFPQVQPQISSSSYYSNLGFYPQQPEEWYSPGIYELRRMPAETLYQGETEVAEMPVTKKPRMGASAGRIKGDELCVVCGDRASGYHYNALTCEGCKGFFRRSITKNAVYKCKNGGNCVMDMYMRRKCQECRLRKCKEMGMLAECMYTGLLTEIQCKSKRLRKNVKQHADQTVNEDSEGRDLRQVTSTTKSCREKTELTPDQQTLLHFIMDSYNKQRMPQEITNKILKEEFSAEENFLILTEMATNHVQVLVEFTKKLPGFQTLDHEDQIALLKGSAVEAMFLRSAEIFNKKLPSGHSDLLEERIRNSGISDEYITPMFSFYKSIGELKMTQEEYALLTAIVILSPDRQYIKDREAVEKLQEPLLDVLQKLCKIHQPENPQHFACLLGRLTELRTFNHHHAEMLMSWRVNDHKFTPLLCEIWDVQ
# UniProt P62508: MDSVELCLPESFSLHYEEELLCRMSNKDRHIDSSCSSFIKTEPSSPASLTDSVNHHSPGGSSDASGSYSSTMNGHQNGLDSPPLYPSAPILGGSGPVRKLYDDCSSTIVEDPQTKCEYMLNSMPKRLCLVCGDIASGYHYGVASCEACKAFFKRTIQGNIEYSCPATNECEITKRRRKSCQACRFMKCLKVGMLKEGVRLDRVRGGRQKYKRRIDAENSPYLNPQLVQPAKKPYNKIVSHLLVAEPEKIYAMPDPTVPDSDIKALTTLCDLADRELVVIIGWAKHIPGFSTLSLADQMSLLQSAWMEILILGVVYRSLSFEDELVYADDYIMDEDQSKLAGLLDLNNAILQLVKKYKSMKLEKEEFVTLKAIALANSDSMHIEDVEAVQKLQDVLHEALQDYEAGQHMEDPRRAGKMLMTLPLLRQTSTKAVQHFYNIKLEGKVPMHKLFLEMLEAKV
# UniProt P49884, whole entry, looked up: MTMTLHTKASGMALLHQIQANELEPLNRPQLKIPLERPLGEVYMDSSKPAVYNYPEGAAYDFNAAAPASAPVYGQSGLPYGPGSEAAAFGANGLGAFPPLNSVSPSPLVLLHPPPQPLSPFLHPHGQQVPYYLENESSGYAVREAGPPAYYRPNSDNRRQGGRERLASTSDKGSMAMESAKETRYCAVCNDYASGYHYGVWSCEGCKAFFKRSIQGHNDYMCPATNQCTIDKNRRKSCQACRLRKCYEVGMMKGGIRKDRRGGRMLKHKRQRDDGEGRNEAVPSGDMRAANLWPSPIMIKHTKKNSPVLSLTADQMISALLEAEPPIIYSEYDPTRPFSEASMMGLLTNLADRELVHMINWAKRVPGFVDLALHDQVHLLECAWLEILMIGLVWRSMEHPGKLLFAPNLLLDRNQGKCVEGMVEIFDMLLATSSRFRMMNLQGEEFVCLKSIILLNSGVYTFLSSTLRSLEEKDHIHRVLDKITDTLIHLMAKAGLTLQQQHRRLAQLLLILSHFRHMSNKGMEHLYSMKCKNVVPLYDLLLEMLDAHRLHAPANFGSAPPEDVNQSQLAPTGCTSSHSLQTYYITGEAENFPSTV
# UniProt P19785, whole entry, looked up: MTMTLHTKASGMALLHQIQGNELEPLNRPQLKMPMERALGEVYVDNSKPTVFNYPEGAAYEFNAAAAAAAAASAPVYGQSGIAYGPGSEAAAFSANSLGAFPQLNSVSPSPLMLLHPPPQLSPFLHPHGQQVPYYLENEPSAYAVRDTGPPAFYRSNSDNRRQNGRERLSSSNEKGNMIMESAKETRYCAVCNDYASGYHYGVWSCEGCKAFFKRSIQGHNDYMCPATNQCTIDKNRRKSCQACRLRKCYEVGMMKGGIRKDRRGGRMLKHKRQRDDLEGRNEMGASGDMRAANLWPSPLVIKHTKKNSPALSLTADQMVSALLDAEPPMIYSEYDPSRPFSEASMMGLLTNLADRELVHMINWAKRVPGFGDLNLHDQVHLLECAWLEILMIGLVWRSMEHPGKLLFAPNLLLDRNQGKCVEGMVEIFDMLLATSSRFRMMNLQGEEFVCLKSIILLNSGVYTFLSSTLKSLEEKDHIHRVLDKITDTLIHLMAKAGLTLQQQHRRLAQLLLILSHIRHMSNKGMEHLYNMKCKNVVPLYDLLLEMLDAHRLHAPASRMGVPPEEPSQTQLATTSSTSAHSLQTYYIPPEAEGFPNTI
# UniProt P11712, whole entry, looked up: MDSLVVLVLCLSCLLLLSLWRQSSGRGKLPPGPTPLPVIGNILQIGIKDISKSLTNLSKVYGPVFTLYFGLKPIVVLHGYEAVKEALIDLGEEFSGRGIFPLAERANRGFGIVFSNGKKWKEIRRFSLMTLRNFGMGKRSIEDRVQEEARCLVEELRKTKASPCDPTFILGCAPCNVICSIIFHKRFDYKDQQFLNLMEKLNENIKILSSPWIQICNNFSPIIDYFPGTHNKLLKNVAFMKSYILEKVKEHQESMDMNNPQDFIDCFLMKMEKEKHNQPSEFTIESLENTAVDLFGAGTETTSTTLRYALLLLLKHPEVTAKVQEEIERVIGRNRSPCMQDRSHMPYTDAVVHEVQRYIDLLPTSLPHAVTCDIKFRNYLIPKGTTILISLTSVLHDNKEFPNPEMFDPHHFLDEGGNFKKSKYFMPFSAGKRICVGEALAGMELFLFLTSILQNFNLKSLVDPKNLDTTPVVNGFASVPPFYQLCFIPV
# UniProt P04406: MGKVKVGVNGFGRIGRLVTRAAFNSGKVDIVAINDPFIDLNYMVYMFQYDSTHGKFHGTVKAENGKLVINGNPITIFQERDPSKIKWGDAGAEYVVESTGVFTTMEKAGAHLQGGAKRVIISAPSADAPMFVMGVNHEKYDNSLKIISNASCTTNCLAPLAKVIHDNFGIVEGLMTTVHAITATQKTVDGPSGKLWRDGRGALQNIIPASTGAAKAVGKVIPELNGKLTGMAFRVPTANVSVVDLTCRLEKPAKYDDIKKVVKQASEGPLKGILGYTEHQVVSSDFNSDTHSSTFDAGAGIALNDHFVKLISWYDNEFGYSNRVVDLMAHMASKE
# UniProt P33261, whole entry, looked up: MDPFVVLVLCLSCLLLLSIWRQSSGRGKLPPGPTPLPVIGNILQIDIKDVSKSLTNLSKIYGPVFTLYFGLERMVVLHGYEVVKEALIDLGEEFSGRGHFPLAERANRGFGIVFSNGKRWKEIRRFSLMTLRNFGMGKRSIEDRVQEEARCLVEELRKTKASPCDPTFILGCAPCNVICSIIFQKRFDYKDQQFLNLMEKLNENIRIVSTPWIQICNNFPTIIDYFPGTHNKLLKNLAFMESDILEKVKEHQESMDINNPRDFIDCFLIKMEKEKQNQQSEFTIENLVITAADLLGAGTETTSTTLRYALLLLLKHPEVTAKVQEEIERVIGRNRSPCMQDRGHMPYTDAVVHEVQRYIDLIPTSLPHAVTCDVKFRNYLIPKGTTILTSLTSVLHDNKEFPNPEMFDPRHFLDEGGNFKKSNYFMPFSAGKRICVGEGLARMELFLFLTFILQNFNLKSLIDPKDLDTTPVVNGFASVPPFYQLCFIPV
# The shares of active, inactive and inconclusive entries below differ from those in the screen. Where the call is inconclusive, the potency comes from a doubtful curve fit. Calls of active or inactive are those of the source. Rule for the calls: active = hit-call score of the fitted dose curve at least 0.9, where 1 is the maximum; inconclusive = response in the unintended direction; inactive = score below 0.9.
# Key:
# [1] = molecular target: Bile acid receptor (Homo sapiens) (UniProt Q96RI1); assay: OT_FXR_FXRSRC1_0480: Odyssey Thera (OT) 8-hour HEK293T Protein-Complementation Assay for Farnesoid X receptor/SRC-1 Co-activator (AID 2283383)
# Method in brief: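 Co-activator recruitment to FXR was measured in living HEK293T cells, where interaction of the two fused partners restored an active fluorescent reporter. Signal gain after 8 h treatment was referenced to DMSO.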
# [2] = molecular target: Bile acid receptor (Homo sapiens) (UniProt Q96RI1); assay: OT_FXR_FXRSRC1_1440: Odyssey Thera (OT) 24-hour HEK293T Protein-Complementation Assay for Farnesoid X receptor/SRC-1 Co-activator (AID 2283384)
# Method in brief: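 Cell-based binding reporter: interaction of FXR with SRC-1 brings reporter fragments together, giving a fluorescence signal read 24 h after dosing of HEK293T cells.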
# [3] = ACEA_AR_antagonist_AUC_viability: ACEA Biosciences xCELLigence Real-Time Cell Analysis on Androgen Receptor Antagonism for Viability (AID 2283776);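 note: 22Rv1 human prostate cancer cells growing on impedance electrode plates; area under impedance growth curve at 80 h after dosing as viability; hits lower the growth signal relative to DMSO meaning cytotoxicity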
# Method in brief: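 Real-time electrical impedance tracks 22Rv1 proliferation after continuous compound exposure (top 100 uM final, 1:4 steps, 8 concentrations). The 80 h area-under-curve serves as the cytotoxicity readout relative to DMSO.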
# [4] = molecular target: Estrogen-related receptor gamma (Homo sapiens) (UniProt P62508); assay: ATG_ERRg_TRANS: Attagene TRANS-FACTORIAL HepG2 Assay for human Estrogen-Related Receptor gamma (ERRg) (AID 2282977); conditions: HepG2 Attagene TRANS reporter, ERRg transactivation;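 note: hits increase reporter signal over DMSO so potencies reflect activators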
# Method in brief: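 Transient HepG2 transfectants, 24 h compound exposure, GAL4-UAS reporter mRNA by RT-PCR/6-FAM labelling/capillary electrophoresis; positive direction vs DMSO.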
# [5] = Tanguay_ZF_120hpf_NC_legacy: (Legacy) Oregon State University Tanguay Lab 120 Hour Post-fertilization zebrafish Assay for Notochord and Tail Malformation (AID 2283656)
# Method in brief: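 Dechorionated 5D zebrafish, 1/well from 6 hpf; static exposure to 120 hpf, 28C, sealed, dark; final DMSO 0.64% v/v. NC scored binary (present/absent); dead embryos not scored. Fit vs DMSO baseline, gain direction.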
# [6] = Tanguay_ZF_120hpf_CIRC_legacy: (Legacy) Oregon State University Tanguay Lab 120 Hour Post-fertilization zebrafish Assay for Circulatory Malformation (AID 2283651)
# Method in brief: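 Using wild-type Tropical 5D zebrafish, we exposed dechorionated embryos from 6 to 120 hpf in embryo medium with 0.64% DMSO. Circulatory defects were scored as present or absent; 5uM trimethyltin chloride served as positive control.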
# [7] = CCTE_Deisenroth_AIME_384WELL_CTox_Active: Cytotoxicity Assessment (CTOX) in CCTE's 384-well Estrogen Receptor Transactivation Assay with AIME metabolic competence (metabolism positive), Deisenroth Lab (AID 2284037);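 note: chemicals first conditioned 2 h by alginate-bound induced rat liver S9 before cells; activity means signal loss indicating cell death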
# Method in brief: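 VM7Luc4E2 breast cells received medium pre-incubated 2 h with chemical over alginate microspheres holding induced male Sprague Dawley rat liver S9; viability read 24 h later by protease-substrate fluorescence. Loss of signal, bidirectional fit, 0.002–200 uM.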
# [8] = molecular target: bovine Estrogen Receptor (ER), ESR1 (gene 407238) (UniProt P49884); assay: NVS_NR_bER: NovaScreen (NVS) Nuclear Receptor Binding Assay for bovine Estrogen Receptor (ER) (AID 2283345);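 note: actives lower the bound radioligand count which means they displace the ER ligand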
# Method in brief: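 Cell-free radioligand binding with receptor from bovine uterine membranes, read by scintillation counting 18 h after dosing. Loss of specific binding was scored against DMSO; primary screen at 25 uM in duplicate, actives then run as concentration series.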
# [9] = molecular target: mouse Estrogen Receptor alpha (Era), Esr1 (gene 13982) (UniProt P19785); assay: NVS_NR_mERa: NovaScreen (NVS) Nuclear Receptor Binding Assay for mouse Estrogen Receptor alpha (Era) (AID 2283378);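 note: hit means loss of bound radioligand signal relative to DMSO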
# Method in brief: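 Cell-free radioligand competitive displacement binding, read by filter-based scintillation counting 18 h after dosing. Primary screen run in duplicate at 25 uM, actives retested in concentration series; loss of signal versus DMSO.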
# [10] = CLD_ACTIN_24hr: CellzDirect (CLD) Gene Expression Assay for Baseline Control (Actin) at 24 hours (AID 2283670)
# Method in brief: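 Primary human hepatocytes dosed over multiple concentrations with 0.2% DMSO vehicle; actin mRNA measured at 24 h by qNPA chemiluminescence. Background control endpoint, fitted as gain of signal versus DMSO.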
# [11] = read-out: HMG-CoA synthase (HMGCS2), HMGCS2 (gene 3158); assay: CLD_HMGCS2_6hr: CellzDirect (CLD) Gene Expression Assay for HMG-CoA synthase (HMGCS2) at 6 hours (AID 2283682);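 note: actives raise HMGCS2 transcript above the 0.2% DMSO vehicle baseline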
# Method in brief: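 Primary human hepatocytes dosed daily with fresh chemical, 0.2% DMSO vehicle; HMGCS2 mRNA measured at 6 h by qNPA chemiluminescence. Gain of signal fitted against DMSO; cytotoxicity flagged from phase-contrast morphology.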
# [12] = read-out: Cytochrome P450 2C9 (Homo sapiens) (UniProt P11712); assay: CLD_CYP2C9_24hr: CellzDirect (CLD) Gene Expression Assay for xenobiotic metabolism (CYP2C9) at 24 hours (AID 2283688);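 for AC50: potency for induction meaning a rise in CYP2C9 mRNA over DMSO vehicle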
# Method in brief: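 Primary human hepatocytes from two donor preparations, dosed daily for two days at multiple concentrations; vehicle 0.2% DMSO. CYP2C9 mRNA induction at 24 h measured by qNPA chemiluminescence relative to DMSO; cytotoxicity annotated from morphology.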
# [13] = read-out: HMG-CoA synthase (HMGCS2), HMGCS2 (gene 3158); assay: CLD_HMGCS2_24hr: CellzDirect (CLD) Gene Expression Assay for HMG-CoA synthase (HMGCS2) at 24 hours (AID 2283691)
# Method in brief: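 Primary human hepatocytes from two donor preparations, dosed daily with fresh solutions; vehicle 0.2% DMSO, 24 h harvest. HMGCS2 mRNA quantified by qNPA with S1 nuclease digestion and chemiluminescence; gain fitted versus DMSO, cytotoxicity annotated by morphology.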
# [14] = read-out: Glyceraldehyde-3-phosphate dehydrogenase (Homo sapiens) (UniProt P04406); assay: CLD_GAPDH_24hr: CellzDirect (CLD) Gene Expression Assay for Baseline Control (Glyceraldehyde 3-phosphate dehydrogenase) at 24 hours (AID 2283692)
# Method in brief: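 Primary human hepatocytes (two donor preparations) dosed daily for two days, 0.2% DMSO vehicle; GAPDH mRNA measured at 24 h by qNPA chemiluminescence as a background control, gain-of-signal fitted against DMSO.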
# [15] = read-out: Cytochrome P450 2C19 (Homo sapiens) (UniProt P33261); assay: CLD_CYP2C19_48hr: CellzDirect (CLD) Gene Expression Assay for xenobiotic metabolism (CYP2C19) at 48 hours (AID 2283700)
# Method in brief: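 Primary human hepatocytes (two donor preparations) dosed daily for two days, harvested at 48 h; CYP2C19 mRNA induction measured by qNPA chemiluminescence. Gain-of-signal fitted relative to 0.2% DMSO vehicle as baseline.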
# [16] = read-out: Glyceraldehyde-3-phosphate dehydrogenase (Homo sapiens) (UniProt P04406); assay: CLD_GAPDH_48hr: CellzDirect (CLD) Gene Expression Assay for Baseline Control (Glyceraldehyde 3-phosphate dehydrogenase) at 48 hours (AID 2283706)
# Method in brief: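 Primary human hepatocytes dosed daily for two days with fresh chemical at multiple concentrations, 0.2% DMSO vehicle; GAPDH mRNA measured at 48 h by quantitative nuclease protection assay with chemiluminescence, fitted upward relative to DMSO as background control.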
# [17] = read-out: organic anion transporter (SLCO1B1), SLCO1B1 (gene 10599); assay: CLD_SLCO1B1_48hr: CellzDirect (CLD) Gene Expression Assay for organic anion transporter (SLCO1B1) at 48 hours (AID 2283707)
# Method in brief: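 Primary human hepatocytes from two donor preparations dosed daily for two days with multiple concentrations, 0.2% DMSO vehicle. SLCO1B1 mRNA at 48 h by quantitative nuclease protection assay, chemiluminescence; gain-of-signal fitted versus DMSO.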
# [18] = read-out: HMG-CoA synthase (HMGCS2), HMGCS2 (gene 3158); assay: CLD_HMGCS2_48hr: CellzDirect (CLD) Gene Expression Assay for HMG-CoA synthase (HMGCS2) at 48 hours (AID 2283711)
# Method in brief: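 Primary human hepatocytes from two donors dosed daily for two days, 0.2% DMSO vehicle. HMGCS2 mRNA measured 48 h after dosing by quantitative nuclease protection assay with chemiluminescent read-out; induction fitted relative to DMSO, cytotoxicity flagged by microscopy.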
# [19] = read-out: organic anion transporter (SLCO1B1), SLCO1B1 (gene 10599); assay: CLD_SLCO1B1_6hr: CellzDirect (CLD) Gene Expression Assay for organic anion transporter (SLCO1B1) at 6 hours (AID 2283668);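 note: active means mRNA induction above DMSO baseline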
# Method in brief: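 Primary human hepatocytes dosed daily with test chemicals (multiple concentrations) in 0.2% DMSO vehicle; harvested at 6 h. SLCO1B1 mRNA quantified by qNPA chemiluminescence, fitted as gain-of-signal versus DMSO; cytotoxicity from phase-contrast morphology flagged alongside.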
smiles,measurement,setting,value
Nc1cc(Cl)cc(Cl)c1,AC50,[1],inconclusive: 8.64 µM
same,outcome,[2],inactive
same,AC50,[3],inconclusive: 230 nM
CCOC(=O)c1ccccc1C(=O)OCC,outcome,[4],inactive
same,AC50,[5],inconclusive: 40.8 µM
C=CCc1ccc2c(c1)OCO2,AC50,[6],inconclusive: 26.4 µM
O=C(N[C@H](c1ccccc1)[C@@H]1CN2CCC1CC2)c1c(Cl)ccc(C(F)(F)F)c1Cl,outcome,[4],inactive
same,outcome,[1],inactive
same,AC50,[2],inconclusive: 131 µM
same,AC50,[6],inconclusive: 69.6 µM
same,AC50,[5],inconclusive: 8.31 µM
same,outcome,[7],inactive
Cc1cc(Cl)ccc1O,outcome,[3],inactive
Cl[C@H]1OCCO[C@@H]1Cl,outcome,[4],inactive
O=[N+]([O-])c1c2ccccc2cc2ccccc12,outcome,[4],inactive
same,AC50,[8],inconclusive: 24.8 µM
same,AC50,[9],inconclusive: 40.7 µM
Cc1cc(C(C)(C)c2ccc(O)c(C)c2)ccc1O,AC50,[4],inconclusive: 74.5 µM
CCOP(=O)(SC(C)CC)N1CCSC1=O (stereo not given),outcome,[5],inactive
same,AC50,[10],inconclusive: 9.24 µM
same,AC50,[11],inconclusive: 0.0107 µM
same,outcome,[12],inactive
same,AC50,[13],inconclusive: 151 nM
same,AC50,[14],inconclusive: 20 µM
same,AC50,[15],inconclusive: 5.34 µM
same,AC50,[16],inconclusive: 3.97 µM
same,outcome,[17],inactive
same,AC50,[18],inconclusive: 20 µM
same,outcome,[7],inactive
O=C(OC1CCCCC1)c1ccccc1C(=O)OC1CCCCC1,outcome,[8],inactive
same,AC50,[9],inconclusive: 26.1 µM
same,AC50,[2],active: 61.8 µM
same,AC50,[3],inconclusive: 575 nM
Cc1cc(Cl)ccc1OCCCC(=O)O,outcome,[2],inactive
CC(c1ccc(O)cc1)c1ccc(O)cc1,outcome,[4],inactive
CCOP(O)OCC,AC50,[3],inconclusive: 26 nM
same,AC50,[7],inconclusive: 1.29 nM
O=P(O)(O)CCCl,outcome,[5],inactive
same,outcome,[10],inactive
same,AC50,[11],inconclusive: 20 µM
same,AC50,[12],inconclusive: 9.41 nM
same,AC50,[13],inconclusive: 356 nM
same,AC50,[15],inconclusive: 20 µM
same,AC50,[16],inconclusive: 20 µM
same,outcome,[17],inactive
same,AC50,[18],active: 0.000456 µM
CCNc1nc(NC(C)C)nc(SC)n1,AC50,[19],inconclusive: 20 µM
same,AC50,[10],inconclusive: 20 µM
same,AC50,[13],inconclusive: 8990 nM
same,outcome,[14],inactive
same,AC50,[15],inconclusive: 3.97 µM
same,AC50,[17],inconclusive: 5.11 µM
same,AC50,[18],inconclusive: 20 µM
CCN(CC)CCO,AC50,[3],inconclusive: 26.4 nM
Clc1cccc(Cl)c1Cl,outcome,[4],inactive
CNC(=N[N+](=O)[O-])NCC1CCOC1 (stereo not given),AC50,[1],inconclusive: 2.19 µM
same,outcome,[2],inactive
same,outcome,[7],inactive
CCCCCCCCCCCCBr,AC50,[8],inconclusive: 0.321 µM
same,AC50,[9],inconclusive: 44.5 µM
Cc1c([N+](=O)[O-])cc2c(c1[N+](=O)[O-])C(C)(C)CC2(C)C,AC50,[4],inconclusive: 100 µM
same,AC50,[8],inconclusive: 1.04 µM
same,AC50,[9],inconclusive: 25 µM
CN(C)c1ccc(C(=O)c2ccc(N(C)C)cc2)cc1,AC50,[6],active: 9.77 µM
same,AC50,[3],active: 9620 nM

# Looked up one by one from the list above (2):
smiles,measurement,setting,value
CCOP(=O)(SC(C)CC)N1CCSC1=O (stereo not given),outcome,[17],inactive
Cl[C@H]1OCCO[C@@H]1Cl,outcome,[4],inactive
